# Experimental data: the supplement of paper PMC12067093, “Discovery and optimisation of a covalent ligand for TRIM25 and its application to targeted protein ubiquitination” (Chemical Science, 2025)
# Amino acid sequences for entries named in this document (tags omitted). A change or cut given only in a name is not applied to a line headed by its entry.
# UniProt Q5VZL5: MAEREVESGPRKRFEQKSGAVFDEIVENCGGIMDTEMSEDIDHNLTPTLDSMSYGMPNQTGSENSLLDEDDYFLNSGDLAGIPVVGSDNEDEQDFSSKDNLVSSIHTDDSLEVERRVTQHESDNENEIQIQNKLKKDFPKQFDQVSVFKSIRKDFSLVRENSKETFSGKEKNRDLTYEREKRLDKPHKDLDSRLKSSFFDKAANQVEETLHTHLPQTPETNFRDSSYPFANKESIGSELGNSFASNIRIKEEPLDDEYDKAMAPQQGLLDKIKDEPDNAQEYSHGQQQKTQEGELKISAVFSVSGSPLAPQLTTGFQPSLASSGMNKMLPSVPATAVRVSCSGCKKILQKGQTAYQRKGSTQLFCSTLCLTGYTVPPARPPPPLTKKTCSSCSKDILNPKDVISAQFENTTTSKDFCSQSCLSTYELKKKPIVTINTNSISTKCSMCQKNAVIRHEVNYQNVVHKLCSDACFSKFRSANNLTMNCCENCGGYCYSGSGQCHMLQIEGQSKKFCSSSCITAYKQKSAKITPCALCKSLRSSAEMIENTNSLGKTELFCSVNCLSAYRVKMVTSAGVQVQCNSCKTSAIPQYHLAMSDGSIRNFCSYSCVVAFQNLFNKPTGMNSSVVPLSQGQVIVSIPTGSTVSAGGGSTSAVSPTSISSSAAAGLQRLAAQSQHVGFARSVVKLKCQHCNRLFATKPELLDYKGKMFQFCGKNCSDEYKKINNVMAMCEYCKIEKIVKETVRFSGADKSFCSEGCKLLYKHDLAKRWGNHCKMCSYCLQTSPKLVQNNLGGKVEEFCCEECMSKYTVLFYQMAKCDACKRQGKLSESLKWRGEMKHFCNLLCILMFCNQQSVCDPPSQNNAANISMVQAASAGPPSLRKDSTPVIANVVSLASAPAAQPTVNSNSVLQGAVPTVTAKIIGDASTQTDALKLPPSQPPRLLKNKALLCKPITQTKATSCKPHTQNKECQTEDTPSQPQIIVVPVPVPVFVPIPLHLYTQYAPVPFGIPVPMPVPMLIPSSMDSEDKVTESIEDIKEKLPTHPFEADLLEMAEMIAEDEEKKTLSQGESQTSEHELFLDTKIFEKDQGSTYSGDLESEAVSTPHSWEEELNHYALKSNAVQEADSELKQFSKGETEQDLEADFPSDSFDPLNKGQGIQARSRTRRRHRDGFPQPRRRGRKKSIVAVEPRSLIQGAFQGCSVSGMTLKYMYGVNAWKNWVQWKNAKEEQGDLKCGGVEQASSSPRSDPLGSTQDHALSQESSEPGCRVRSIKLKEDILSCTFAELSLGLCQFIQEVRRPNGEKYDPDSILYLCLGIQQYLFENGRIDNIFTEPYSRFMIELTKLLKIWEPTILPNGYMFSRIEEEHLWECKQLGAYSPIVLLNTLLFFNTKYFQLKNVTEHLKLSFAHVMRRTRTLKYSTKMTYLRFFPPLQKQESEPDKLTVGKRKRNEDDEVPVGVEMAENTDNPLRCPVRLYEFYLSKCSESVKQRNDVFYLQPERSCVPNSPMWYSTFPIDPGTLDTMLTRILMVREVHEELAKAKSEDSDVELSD
# UniProt Q6ZN55: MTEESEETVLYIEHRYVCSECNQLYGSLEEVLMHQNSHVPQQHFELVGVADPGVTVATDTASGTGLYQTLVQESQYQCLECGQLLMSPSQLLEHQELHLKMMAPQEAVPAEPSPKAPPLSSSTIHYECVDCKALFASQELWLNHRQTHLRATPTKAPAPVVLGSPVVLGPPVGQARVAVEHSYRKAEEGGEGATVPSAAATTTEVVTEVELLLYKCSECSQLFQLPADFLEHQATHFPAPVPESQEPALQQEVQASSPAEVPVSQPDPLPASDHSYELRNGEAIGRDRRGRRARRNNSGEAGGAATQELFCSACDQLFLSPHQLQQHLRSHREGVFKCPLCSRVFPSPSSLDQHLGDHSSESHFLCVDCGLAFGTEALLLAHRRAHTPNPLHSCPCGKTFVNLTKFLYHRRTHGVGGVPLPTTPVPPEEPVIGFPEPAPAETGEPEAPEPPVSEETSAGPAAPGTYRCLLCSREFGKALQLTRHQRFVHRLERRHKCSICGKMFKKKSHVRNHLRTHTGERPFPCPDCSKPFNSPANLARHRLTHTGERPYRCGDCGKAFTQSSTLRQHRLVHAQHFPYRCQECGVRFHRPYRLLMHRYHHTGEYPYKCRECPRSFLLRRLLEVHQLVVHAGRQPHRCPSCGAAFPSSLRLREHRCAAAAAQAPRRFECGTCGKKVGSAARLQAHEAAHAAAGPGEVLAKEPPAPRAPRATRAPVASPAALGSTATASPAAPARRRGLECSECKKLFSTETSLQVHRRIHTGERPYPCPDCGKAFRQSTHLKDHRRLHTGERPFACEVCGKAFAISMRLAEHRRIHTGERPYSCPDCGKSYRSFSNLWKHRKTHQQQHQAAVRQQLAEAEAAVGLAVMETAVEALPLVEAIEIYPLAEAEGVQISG
# UniProt Q14966: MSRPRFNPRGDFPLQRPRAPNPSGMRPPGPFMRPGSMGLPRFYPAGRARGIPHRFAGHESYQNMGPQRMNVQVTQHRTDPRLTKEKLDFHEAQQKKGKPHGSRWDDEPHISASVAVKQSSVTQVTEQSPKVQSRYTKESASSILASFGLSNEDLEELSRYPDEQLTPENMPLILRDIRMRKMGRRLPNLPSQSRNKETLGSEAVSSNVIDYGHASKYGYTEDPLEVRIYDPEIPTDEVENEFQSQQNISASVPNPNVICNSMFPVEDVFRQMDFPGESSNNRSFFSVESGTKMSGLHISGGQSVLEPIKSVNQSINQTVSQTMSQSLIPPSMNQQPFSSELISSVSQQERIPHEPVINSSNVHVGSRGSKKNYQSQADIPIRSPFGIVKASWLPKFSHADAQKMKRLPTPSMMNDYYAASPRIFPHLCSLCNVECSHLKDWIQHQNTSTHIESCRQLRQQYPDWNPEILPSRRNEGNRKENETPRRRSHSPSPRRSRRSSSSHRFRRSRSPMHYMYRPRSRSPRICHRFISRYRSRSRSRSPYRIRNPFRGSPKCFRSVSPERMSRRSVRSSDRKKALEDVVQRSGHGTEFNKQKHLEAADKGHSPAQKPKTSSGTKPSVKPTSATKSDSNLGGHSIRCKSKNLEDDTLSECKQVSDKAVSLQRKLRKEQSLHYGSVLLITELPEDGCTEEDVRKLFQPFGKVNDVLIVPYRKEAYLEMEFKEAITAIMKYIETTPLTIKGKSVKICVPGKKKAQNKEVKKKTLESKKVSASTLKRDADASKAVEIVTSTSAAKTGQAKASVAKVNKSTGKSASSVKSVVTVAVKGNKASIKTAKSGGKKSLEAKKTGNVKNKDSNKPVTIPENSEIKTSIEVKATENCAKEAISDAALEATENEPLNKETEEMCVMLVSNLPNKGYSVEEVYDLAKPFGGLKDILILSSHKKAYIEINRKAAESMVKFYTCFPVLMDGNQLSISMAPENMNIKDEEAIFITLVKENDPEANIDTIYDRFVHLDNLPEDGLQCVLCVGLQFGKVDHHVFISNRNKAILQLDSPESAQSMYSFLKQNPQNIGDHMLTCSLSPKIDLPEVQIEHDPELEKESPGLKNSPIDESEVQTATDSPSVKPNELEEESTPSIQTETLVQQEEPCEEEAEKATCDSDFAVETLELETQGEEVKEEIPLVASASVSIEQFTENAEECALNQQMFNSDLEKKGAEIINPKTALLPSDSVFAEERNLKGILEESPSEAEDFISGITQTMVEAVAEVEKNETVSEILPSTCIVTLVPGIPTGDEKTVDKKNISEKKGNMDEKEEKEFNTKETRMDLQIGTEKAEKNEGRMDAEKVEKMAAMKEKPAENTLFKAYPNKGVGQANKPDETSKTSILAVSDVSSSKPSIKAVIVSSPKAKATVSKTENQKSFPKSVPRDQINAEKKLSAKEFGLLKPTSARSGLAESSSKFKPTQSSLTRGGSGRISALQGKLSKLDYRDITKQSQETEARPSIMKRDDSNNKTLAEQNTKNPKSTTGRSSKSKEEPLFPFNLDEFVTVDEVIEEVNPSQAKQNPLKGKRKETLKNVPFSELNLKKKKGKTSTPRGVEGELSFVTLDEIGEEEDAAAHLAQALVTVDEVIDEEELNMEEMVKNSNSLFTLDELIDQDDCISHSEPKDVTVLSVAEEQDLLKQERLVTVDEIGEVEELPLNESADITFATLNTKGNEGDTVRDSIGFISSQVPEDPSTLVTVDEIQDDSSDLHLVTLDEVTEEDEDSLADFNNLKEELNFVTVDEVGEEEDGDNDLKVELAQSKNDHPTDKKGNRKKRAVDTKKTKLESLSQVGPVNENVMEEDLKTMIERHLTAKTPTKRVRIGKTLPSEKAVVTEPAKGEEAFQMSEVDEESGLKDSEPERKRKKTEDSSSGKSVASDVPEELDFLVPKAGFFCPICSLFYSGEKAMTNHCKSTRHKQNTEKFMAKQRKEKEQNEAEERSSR
# UniProt Q9Y4E5: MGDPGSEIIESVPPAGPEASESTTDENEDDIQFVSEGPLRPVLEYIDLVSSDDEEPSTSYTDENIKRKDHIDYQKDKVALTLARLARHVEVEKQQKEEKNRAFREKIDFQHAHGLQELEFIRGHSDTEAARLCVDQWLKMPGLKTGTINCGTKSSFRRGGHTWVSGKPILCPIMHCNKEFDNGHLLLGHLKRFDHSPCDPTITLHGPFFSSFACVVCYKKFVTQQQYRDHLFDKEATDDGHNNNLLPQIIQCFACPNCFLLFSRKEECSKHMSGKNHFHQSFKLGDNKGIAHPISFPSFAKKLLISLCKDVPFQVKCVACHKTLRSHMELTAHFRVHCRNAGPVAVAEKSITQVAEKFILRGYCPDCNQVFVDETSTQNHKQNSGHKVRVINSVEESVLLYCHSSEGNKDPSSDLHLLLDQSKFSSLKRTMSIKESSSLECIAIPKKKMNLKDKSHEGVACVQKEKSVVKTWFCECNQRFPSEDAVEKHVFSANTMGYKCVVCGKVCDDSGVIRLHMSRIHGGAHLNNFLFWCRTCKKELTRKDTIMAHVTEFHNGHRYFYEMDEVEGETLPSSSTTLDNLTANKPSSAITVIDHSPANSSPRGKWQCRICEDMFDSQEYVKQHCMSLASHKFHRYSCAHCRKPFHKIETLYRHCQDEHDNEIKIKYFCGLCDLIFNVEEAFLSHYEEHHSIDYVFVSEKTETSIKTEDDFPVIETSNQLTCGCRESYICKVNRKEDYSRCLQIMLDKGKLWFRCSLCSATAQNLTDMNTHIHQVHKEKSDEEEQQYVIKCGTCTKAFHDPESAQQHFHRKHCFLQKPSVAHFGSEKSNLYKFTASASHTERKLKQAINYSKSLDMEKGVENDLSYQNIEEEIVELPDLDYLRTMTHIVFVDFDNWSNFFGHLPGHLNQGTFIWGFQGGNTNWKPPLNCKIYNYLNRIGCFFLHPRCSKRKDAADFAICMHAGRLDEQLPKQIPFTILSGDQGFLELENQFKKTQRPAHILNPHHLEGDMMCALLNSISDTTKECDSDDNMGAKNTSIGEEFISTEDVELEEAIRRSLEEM
# UniProt Q96ME7: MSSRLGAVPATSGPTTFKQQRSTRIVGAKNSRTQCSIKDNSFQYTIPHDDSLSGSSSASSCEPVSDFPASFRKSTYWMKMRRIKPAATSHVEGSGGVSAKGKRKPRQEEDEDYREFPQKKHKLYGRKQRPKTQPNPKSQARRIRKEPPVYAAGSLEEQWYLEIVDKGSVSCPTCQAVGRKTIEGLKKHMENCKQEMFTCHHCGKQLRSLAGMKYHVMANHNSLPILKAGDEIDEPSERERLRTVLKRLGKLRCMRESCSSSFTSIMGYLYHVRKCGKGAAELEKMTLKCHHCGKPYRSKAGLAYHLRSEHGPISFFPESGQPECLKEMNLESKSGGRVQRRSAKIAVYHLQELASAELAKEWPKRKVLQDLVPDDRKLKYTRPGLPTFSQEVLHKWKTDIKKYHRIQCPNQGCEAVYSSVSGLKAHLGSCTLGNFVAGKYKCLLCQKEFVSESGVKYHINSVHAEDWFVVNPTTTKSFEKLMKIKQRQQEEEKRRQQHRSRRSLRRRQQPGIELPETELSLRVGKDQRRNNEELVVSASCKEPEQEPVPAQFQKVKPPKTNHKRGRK
# UniProt Q9UK33: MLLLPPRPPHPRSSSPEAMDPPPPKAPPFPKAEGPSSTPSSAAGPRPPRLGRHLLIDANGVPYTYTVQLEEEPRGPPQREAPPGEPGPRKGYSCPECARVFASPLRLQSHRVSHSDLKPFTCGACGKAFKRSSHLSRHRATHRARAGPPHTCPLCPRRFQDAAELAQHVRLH
# UniProt Q5VV52: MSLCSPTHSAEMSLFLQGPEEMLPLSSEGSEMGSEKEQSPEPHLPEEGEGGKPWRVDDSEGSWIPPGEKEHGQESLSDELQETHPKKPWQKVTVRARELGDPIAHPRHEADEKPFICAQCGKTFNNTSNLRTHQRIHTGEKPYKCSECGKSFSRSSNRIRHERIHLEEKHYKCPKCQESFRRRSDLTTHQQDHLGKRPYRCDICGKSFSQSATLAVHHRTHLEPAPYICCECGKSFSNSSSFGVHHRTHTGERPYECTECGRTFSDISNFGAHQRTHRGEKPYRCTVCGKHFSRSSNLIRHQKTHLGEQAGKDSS
# The list shows a part of the results.
# Compound: Cc1cc(ccc1-c1ccccc1)C(=O)N1CCCN(CC1)C(=O)CCl [compound 10]
# Test: probe-labelled cysteine peptide fold change vs DMSO (competition) (log2 fold change); higher = less target engagement (more negative = stronger competition)
# Details: THP-1, incubation time: 4 h
# 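Further: competitive profiling in live THP-1 cells: cysteine peptides tagged with an iodoacetamide desthiobiotin (IA-DTB) probe, intensity after compound treatment relative to DMSO-treated cells.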
Target,probe-labelled cysteine peptide fold change (10 µM),probe-labelled cysteine peptide fold change (50 µM)
ZNF106_Q9H2Y7_1131_IQILQGLQETYEPSEHPDQVPCSLTR (UniProt Q9H2Y7),0.0774,-0.196
ZNF277_Q9NRM2_137_INSTAPFEEQENYFLLCDVLPEDR (UniProt Q9NRM2),0.249,0.407
ZMYM4_Q5VZL5_1368_IEEEHLWECK (UniProt Q5VZL5),0.123,-0.246
ZNF574_Q6ZN55_656_CAAAAAQAPR (UniProt Q6ZN55),0.218,0.33
ZNF574_Q6ZN55_394+396_AHTPNPLHSCPCGK (UniProt Q6ZN55),-0.0114,-0.363
ZNF638_Q14966_652_NLEDDTLSECK (UniProt Q14966),-0.255,-0.0904
ZNF451_Q9Y4E5_940_IGCFFLHPR (UniProt Q9Y4E5),-0.216,-0.702
ZNF618_Q5T7W0_668_SMHEVIELLNVCEDLAGSTGLAK (UniProt Q5T7W0),0.279,0.219
ZNF649_Q9BS31_183_AHECTDCGK (UniProt Q9BS31),0.185,0.0149
ZNF408_Q9H9D4_383_HAFVHTGHKPFLCTECGK (UniProt Q9H9D4),0.0181,0.183
ZMYM3_Q14202_436_LCSDSCFSK (UniProt Q14202),-0.166,-0.551
ZNF131_P52739_235_EDGCPSDPTSK (UniProt P52739),-0.195,0.0174
ZNF207_O43670_54_LYTGPGLAIHCMQVHK (UniProt O43670),0.273,0.252
ZNF76_P36508_292_THTGERPYTCPEPHCGR (UniProt P36508),0.0197,-0.0549
ZMIZ2_Q8NF64_418_SPFLPDLKPNLNSLHSSPSGSGPCDELR (UniProt Q8NF64),-0.102,-0.577
ZMIZ2_Q8NF64_471_CYHHEDR (UniProt Q8NF64),0.0998,0.0374
ZNF280D_Q6N043_827_NIVSCDSNIGADKVEK (UniProt Q6N043),-0.428,-0.72
ZNF670_Q9BS34_339_THTGVKPYGCK (UniProt Q9BS34),0.0468,0.199
ZMYM3_Q14202_501_VYPCVWCK (UniProt Q14202),-0.0763,-0.0366
ZNF330_Q9Y3S2_114_CLSTHACACPLTDAECVECER (UniProt Q9Y3S2),0.172,0.0269
ZNF451_Q9Y4E5_476_TWFCECNQR (UniProt Q9Y4E5),0.0139,0.0709
ZNF609_O15014_178_SEGVGTCSEK (UniProt O15014),0.1,-0.202
ZNF292_O60281_2454_DSDTCVSESNDNSR (UniProt O60281),-0.0868,-0.0607

Target,probe-labelled cysteine peptide fold change (10 µM),probe-labelled cysteine peptide fold change (50 µM)
ZNF512_Q96ME7_442_CLLCQK (UniProt Q96ME7),-0.143,0.0478
ZNF580_Q9UK33_122_VSHSDLKPFTCGACGK (UniProt Q9UK33),-0.0566,-0.194
ZFP91_Q96JP5_182_TGSLQLICK (UniProt Q96JP5),-0.314,-0.272
ZFYVE21_Q9BQ24_138_VLLSGATFLVTFGNSEKPETMTCR (UniProt Q9BQ24),-0.205,-0.209
ZNF143_P52747_364_THTGERPYYCTEPGCGR (UniProt P52747),0.155,0.34
ZNF638_Q14966_428_IFPHLCSLCNVECSHLK (UniProt Q14966),0.189,0.294
ZFR_Q96KR1_340_ISCAGPQTYK (UniProt Q96KR1),-0.204,-0.163
ZNF106_Q9H2Y7_1576_VNCLLVTQTSGK (UniProt Q9H2Y7),0.11,0.282
ZNF691_Q5VV52_176_CQESFR (UniProt Q5VV52),-0.0275,-0.0396
ZMYND8_Q9ULU4_94_NDFYCWVCHR (UniProt Q9ULU4),0.0828,0.0284
ZNF691_Q5VV52_230_THLEPAPYICCECGK (UniProt Q5VV52),-0.116,-0.983
ZMYND8_Q9ULU4_106_EGQVLCCELCPR (UniProt Q9ULU4),0.0622,0.211
ZNF768_Q9H5H4_378_THSHERPYSCTECGK (UniProt Q9H5H4),0.271,-0.00926
ZNF217_O75362_697_PLNLSVGALHNCPAISLSK (UniProt O75362),0.198,0.102
ZNF106_Q9H2Y7_1853_NCDAFFTAR (UniProt Q9H2Y7),-0.0368,0.278
ZNF598_Q86UK7_33_GGGSCVLCCGDLEATALGR (UniProt Q86UK7),-0.0671,0.0981
ZNF106_Q9H2Y7_1620_VLCLHSR (UniProt Q9H2Y7),-0.0608,0.198
ZNF512_Q96ME7_430_AHLGSCTLGNFVAGK (UniProt Q96ME7),-0.105,0.02
ZMYM4_Q5VZL5_1264_SDPLGSTQDHALSQESSEPGCR (UniProt Q5VZL5),-0.191,-0.376
ZMYND8_Q9ULU4_567_TIESCK (UniProt Q9ULU4),-0.0635,-0.282
ZNF280C_Q8ND82_734_STSTSEPTTGCSLK (UniProt Q8ND82),-0.118,-0.254
ZNF318_Q5VUA4_1071_DCNTICGTMFDFFTHMHNK (UniProt Q5VUA4),0.0242,-0.00749
